# Laboratory results published in PubChem BioAssay AID493014 (National Center for Advancing Translational Sciences (NCATS), 2011).
# The other results are listed elsewhere or left out. Further columns of the screen follow, without active or inactive calls. Most of these compounds were active or inconclusive in the main read-out, so they are no random draw. Words in brackets tell the shape of the fitted curve; partial curves, single points and poor fits give uncertain potencies.
# Assay: qHTS Assay to Find Inhibitors of Chronic Active B-Cell Receptor Signaling
# Details: ABC-DLBCL IkBa-CBG/CBR reporter, luminescence ratio (green luciferase fused to IkBa over red control in TMD8 lymphoma cells), 4 h
# Outline: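 Compounds up to 46 uM were incubated four hours with TMD8 cells whose green CBG68 luciferase is fused to IkappaBalpha; red CBR luminescence normalised the signal, and concentration-effect curves were fitted to fusion, red and ratio data.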
# [1] = measured here: CBR red luminescence, cell number
# [2] = measured here: IkBa-CBG green luminescence
SMILES,AC50 [1],AC50 [2]
COc1ccccc1/C=C/C(=O)Nc1cccc(C(C)=O)c1,"10 µM [falling, partial curve]",–
CC(C)c1nnc(NC(=O)c2cccnc2)s1,"8.2 µM [falling, single point]",–
c1ccc(-c2ccc(CN3CCN(c4ncccn4)CC3)cc2)cc1,"5.01 µM [rising, partial curve, poor fit]",–
CCOC(=O)c1cn(Cc2ccccc2)nn1,"6.51 µM [rising, partial curve]",–
CC(=O)Oc1c(Cl)cc(Cl)cc1/C=C/c1ccc2ccccc2n1,"0.282 µM [rising, full curve, poor fit]",–
CC1CC(C)CN(c2nc(N(C)c3ccccc3)nc(N)c2[N+](=O)[O-])C1 (configuration not stated),"35.5 µM [rising, single point]",–
CCS(=O)(=O)c1ccc(Sc2nncn2C)c([N+](=O)[O-])c1,"28.2 µM [falling, single point]",–
CCOc1ccc(-c2nnc(N3CCOCC3)c3ccccc23)cc1,"35.5 µM [rising, single point]",–
COc1ccc(OCC(O)CN2C(=O)c3ccccc3C2=O)cc1 (configuration not stated),"35.5 µM [rising, single point]",–
O=C(CSc1cccc2cccnc12)N/N=C/c1cccc(O)c1,"1.41 µM [falling, full curve, poor fit]",–
CCCCn1nc2cc(C(=O)NCc3ccc4c(c3)OCO4)ccc2c1OCC,"23.1 µM [rising, partial curve, poor fit]",–
COc1ccc(C(=O)COC(=O)c2ccc(NC(C)=O)cc2)cc1[N+](=O)[O-],"3.98 µM [rising, partial curve, poor fit]",–
CCOC(=O)Nc1ccc2c(CN3CCN(S(=O)(=O)c4ccc(C(C)C)cc4)CC3)cc(=O)oc2c1,"29.1 µM [rising, single point]",–
CN=C(Nc1ccccc1)SC1CC(=O)N(c2ccc(C(=O)OC)cc2)C1=O (configuration not stated),"35.5 µM [falling, single point]",–
CCCCN(C(=O)CSc1nnnn1C)c1c(N)n(Cc2ccccc2)c(=O)[nH]c1=O,"6.31 µM [rising, single point]",–
Cc1nn(Cc2ccc(C(=O)N3c4ccc(F)cc4CCC3C)o2)c(C)c1Br (configuration not stated),"29.1 µM [falling, single point]",–
COc1ccc(-c2nn(-c3ccccc3)cc2CO)cc1OC,"5.62 µM [rising, partial curve, poor fit]",–
Cc1c(C)n(C)c2ccc(C(=O)NCc3cccs3)cc12,"29.1 µM [falling, single point]",–
O=C(Cn1cnc2sc(-c3ccccc3)cc2c1=O)NCCc1ccccc1,"29.1 µM [rising, single point]",–
COc1ccc(S(=O)(=O)N(C)C[C@@H]2Oc3ccc(NC(=O)Nc4c(C)noc4C)cc3C(=O)N([C@H](C)CO)C[C@@H]2C)cc1,"16.4 µM [falling, single point]",–

# Given with bars between the fields: part of the list above
SMILES | AC50 [1] | AC50 [2]
Cc1c(C)n(C)c2ccc(C(=O)NCc3cccs3)cc12 | 29.1 µM [falling, single point] | –
O=C(Cn1cnc2sc(-c3ccccc3)cc2c1=O)NCCc1ccccc1 | 29.1 µM [rising, single point] | –

# (cont.)

SMILES,AC50 [1],AC50 [2]
Cc1ccc(NC(=O)c2cnc3ccccc3n2)cc1C,"0.562 µM [rising, full curve, poor fit]",–
CSCCC(NC(=O)CCC(=O)OCC(=O)[C@@]1(O)CCC2[C@@H]3CCC4=CC(=O)C=C[C@]4(C)C3[C@@H](O)C[C@@]21C)C(=O)O (some centres not stated),"6.31 µM [rising, partial curve, poor fit]",–
COc1ccc(Br)cc1/C=N/NC(=O)c1cc(OC)c(OC)c(OC)c1,–,"18.4 µM [falling, single point]"
O=c1oc(-c2ccc(F)cc2)nc2ccsc12,"2.91 µM [falling, full curve]",–
Cc1ccc(S(=O)(=O)CCC(=O)Nc2cccc(S(=O)(=O)N3CCCCCC3)c2)cc1,"11.6 µM [falling, single point]",–
COc1cc(S(=O)(=O)n2ccnc2)ccc1Br,"2 µM [rising, partial curve]",–
COc1cccc(CN(C)CC(=O)Nc2cccc(C(F)(F)F)c2)c1OC,"35.5 µM [rising, partial curve, poor fit]",–
O=Cc1s/c(=N\S(=O)(=O)c2ccccc2)n(CCCCl)c1Cl,"35.5 µM [falling, single point]","5.62 µM [falling, single point]"
COc1ccc(CCNc2nc3c(c(=O)n(C)c(=O)n3C)n2C)cc1OC,"0.13 µM [falling, full curve]",–
O=C(NC(=S)Nc1ccc(N2CCOCC2)cc1)c1cccc(Cl)c1,"4.11 µM [rising, full curve, poor fit]",–
CC(=O)Nc1sc(N/N=C\c2cccc(Cl)c2)nc1-c1cccs1,"23.1 µM [falling, single point]",–
CN(C)c1ccc(-c2cc([C@H]3[C@@H]4C=CCC[C@@]4(C)C(=O)N3Cc3ccccc3)ccc2F)cc1,"5.62 µM [rising, single point]",–
CCOCCOC(=O)c1[nH]c2c(c1C)C(=O)CC(c1ccccc1)C2 (configuration not stated),"2.51 µM [rising, full curve, poor fit]","2.82 µM [falling, full curve]"
CCCCN(CC)CCNC(=O)c1cc2c(-c3ccccc3F)nn(C)c2s1,"35.5 µM [falling, single point]",–
CCC/C=N/NC(=O)c1ccc(F)cc1,"10 µM [falling, partial curve]",–
Cc1ccc(-n2nc(C)c3c(C)c(CCC(=O)NCCCOC(C)C)c(C)nc32)cc1,"15.8 µM [rising, single point]",–
Cc1ccc(NC(=O)c2cccs2)cc1NC(=O)c1ccc(F)cc1,"35.5 µM [rising, partial curve, poor fit]",–
CN(C)S(=O)(=O)c1ccc(C(=O)NCCSc2ccccc2)cc1,"23.1 µM [rising, single point]",–
CCOC(=O)c1cc(=O)n(Cc2ccccc2C)c2ccccc12,"11.6 µM [falling, single point]",–
Cn1cc(CN2CCCC(C(=O)Nc3cccc(-c4cc5ccccc5[nH]4)c3)C2)cn1 (configuration not stated),"11.2 µM [falling, partial curve]",–
